Small differences around the control level are noise.
Experiments:
Experiment in all cases: normalised response (% of control), CellTox Green; higher = less cell death (100 = DMSO, 0 = benzethonium chloride kill control)
Details in all cases: incubation time: 72 h
[1] = system: MDA-MB-453
Experimental: (§1)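 DSRT, 72 h incubation, CellTox Green / CellTiter-Glo readout. Signal is normalised to DMSO and benzethonium chloride controls. Value is the normalised response at dose 2.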

[2] = system: CAL-120
Experimental: as §1

[3] = system: HCC1937
Experimental: as §1

[4] = system: HCC1143
Experimental: as §1

[5] = system: BT-549
Experimental: as §1

[6] = system: HCC1599
Experimental: as §1

[7] = system: MDA-MB-231
Experimental: as §1

[8] = system: HDQ-P1
Experimental: as §1

[9] = system: MCF-10A
Experimental: as §1

[10] = system: Hs578T
Experimental: as §1

[11] = system: CAL-148
Experimental: as §1

[12] = system: CAL-51
Experimental: as §1

[13] = system: BT-474
Experimental: as §1

[14] = system: MDA-MB-436
Experimental: as §1

[15] = system: DU-4475
Experimental: as §1

[16] = system: MDA-MB-468
Experimental: as §1

[17] = system: MFM-223
Experimental: as §1

[18] = system: CAL-85-1
Experimental: as §1

| Compound | normalised response [1] | normalised response [2] | normalised response [3] | normalised response [4] | normalised response [5] | normalised response [6] | normalised response [7] | normalised response [8] | normalised response [9] | normalised response [10] | normalised response [11] | normalised response [12] | normalised response [13] | normalised response [14] | normalised response [15] | normalised response [16] | normalised response [17] | normalised response [18] |
| --- | --- | --- | --- | --- | --- | --- | --- | --- | --- | --- | --- | --- | --- | --- | --- | --- | --- | --- |
| NC(=O)NO [Hydroxyurea] (100 nM) | 97% | 100% | 70.5% | 83.8% | 84.9% | 99.5% | 114% | 115% | 107% | 104% | 104% | 105% | 102% | 105% | 96.3% | 111% | 104% | 105% |
| CC[C@@H]1C(=O)N(C)c2cnc(Nc3ccc(C(=O)NC4CCN(C)CC4)cc3OC)nc2N1C1CCCC1 [BI 2536] (1 nM) | 106% | 101% | 114% | 117% | 98.9% | 113% | 104% | 118% | 99.1% | 124% | 106% | 110% | 101% | 103% | 105% | 95.9% | 98.8% | 90.6% |
| Cc1cc(Nc2cc(CN3CCOCC3)c3nc(C)c(Cc4ccc(Cl)cc4F)n3n2)n[nH]1 [Gandotinib] (10 nM) | 105% | 103% | 77.5% | 121% | 99.8% | 113% | 101% | 127% | 108% | 123% | 102% | 104% | 100% | 114% | 108% | 70.3% | 101% | 93.4% |
| CC(=O)OC[C@H]1O[C@@H]([S-])[C@H](OC(C)=O)[C@@H](OC(C)=O)[C@@H]1OC(C)=O.CCP(CC)CC.[Au+] [Auranofin] (2.5 nM) | 109% | 101% | 119% | 108% | 109% | 120% | 122% | 95.4% | 109% | 125% | 63% | 116% | 107% | 91.5% | 108% | 121% | 107% | 109% |
| COc1ccccc1S(=O)(=O)Nc1ccc2c(c1)CN(C)C(=O)N2 [PFI-1] (10 nM) | 90.5% | 104% | 135% | 116% | 115% | 119% | 123% | 107% | 107% | 70.4% | 112% | 112% | 87% | 101% | 111% | 127% | 106% | 110% |
| Nc1nc2[nH]cnc2c(=S)[nH]1 [Thioguanine] (10 nM) | 97.7% | 102% | 91.3% | 108% | 106% | 89.4% | 88.6% | 108% | 85% | 116% | 108% | 95.6% | 104% | 87.8% | 93.5% | 105% | 93% | 104% |
| CC/C(=C(\c1ccccc1)c1ccc(OCCN(C)C)cc1)c1ccccc1 [Tamoxifen] (10 nM) | 99.8% | 102% | 62.7% | 108% | 108% | 91.7% | 121% | 117% | 74.4% | 95.3% | 111% | 90.5% | 105% | 110% | 104% | 119% | 101% | 99.7% |
| C[C@@H]1C=C2C(=O)O[C@@H]3CC[C@H](C1)[C@]23O [Galiellalactone] (50 nM) | 108% | 102% | 111% | 123% | 109% | 121% | 111% | 118% | 104% | 57.6% | 91.9% | 91.8% | 103% | 97.7% | 118% | 92.6% | 103% | 94.9% |

Source: the supplement of paper PMC4862054
